Results reported in article PMC10090947.

The chains behind the UniProt entries cited, without tags or fusion partners.
UniProt O95835: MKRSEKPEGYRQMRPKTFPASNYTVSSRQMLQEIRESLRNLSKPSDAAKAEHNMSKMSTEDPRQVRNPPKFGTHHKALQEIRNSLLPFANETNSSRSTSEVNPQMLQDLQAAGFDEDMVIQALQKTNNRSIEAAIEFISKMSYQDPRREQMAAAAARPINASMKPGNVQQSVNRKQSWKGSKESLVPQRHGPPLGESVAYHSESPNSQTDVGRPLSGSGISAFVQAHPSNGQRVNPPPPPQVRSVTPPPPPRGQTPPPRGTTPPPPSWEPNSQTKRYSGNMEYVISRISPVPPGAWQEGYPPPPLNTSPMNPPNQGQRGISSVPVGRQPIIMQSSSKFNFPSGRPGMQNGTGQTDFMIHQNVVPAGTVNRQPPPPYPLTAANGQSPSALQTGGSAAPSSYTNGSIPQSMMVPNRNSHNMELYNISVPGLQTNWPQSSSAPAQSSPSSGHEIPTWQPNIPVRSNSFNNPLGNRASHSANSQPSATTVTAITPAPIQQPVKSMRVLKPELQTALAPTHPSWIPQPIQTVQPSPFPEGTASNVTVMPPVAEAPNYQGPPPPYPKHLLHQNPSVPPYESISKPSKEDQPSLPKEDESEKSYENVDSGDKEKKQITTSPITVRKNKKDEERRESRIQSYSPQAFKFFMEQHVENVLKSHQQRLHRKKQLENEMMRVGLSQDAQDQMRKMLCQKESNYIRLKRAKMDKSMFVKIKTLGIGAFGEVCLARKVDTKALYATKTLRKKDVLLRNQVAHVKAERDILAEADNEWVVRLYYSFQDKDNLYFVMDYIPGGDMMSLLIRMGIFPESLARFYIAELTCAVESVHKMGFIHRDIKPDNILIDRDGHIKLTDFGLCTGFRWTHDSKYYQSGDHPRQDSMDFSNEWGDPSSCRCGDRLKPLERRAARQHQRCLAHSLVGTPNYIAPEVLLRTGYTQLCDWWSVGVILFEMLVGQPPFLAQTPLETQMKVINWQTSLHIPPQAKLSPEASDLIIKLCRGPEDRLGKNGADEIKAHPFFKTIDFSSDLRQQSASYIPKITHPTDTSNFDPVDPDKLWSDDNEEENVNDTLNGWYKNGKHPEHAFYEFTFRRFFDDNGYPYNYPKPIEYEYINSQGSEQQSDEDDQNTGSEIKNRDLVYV
UniProt Q15678: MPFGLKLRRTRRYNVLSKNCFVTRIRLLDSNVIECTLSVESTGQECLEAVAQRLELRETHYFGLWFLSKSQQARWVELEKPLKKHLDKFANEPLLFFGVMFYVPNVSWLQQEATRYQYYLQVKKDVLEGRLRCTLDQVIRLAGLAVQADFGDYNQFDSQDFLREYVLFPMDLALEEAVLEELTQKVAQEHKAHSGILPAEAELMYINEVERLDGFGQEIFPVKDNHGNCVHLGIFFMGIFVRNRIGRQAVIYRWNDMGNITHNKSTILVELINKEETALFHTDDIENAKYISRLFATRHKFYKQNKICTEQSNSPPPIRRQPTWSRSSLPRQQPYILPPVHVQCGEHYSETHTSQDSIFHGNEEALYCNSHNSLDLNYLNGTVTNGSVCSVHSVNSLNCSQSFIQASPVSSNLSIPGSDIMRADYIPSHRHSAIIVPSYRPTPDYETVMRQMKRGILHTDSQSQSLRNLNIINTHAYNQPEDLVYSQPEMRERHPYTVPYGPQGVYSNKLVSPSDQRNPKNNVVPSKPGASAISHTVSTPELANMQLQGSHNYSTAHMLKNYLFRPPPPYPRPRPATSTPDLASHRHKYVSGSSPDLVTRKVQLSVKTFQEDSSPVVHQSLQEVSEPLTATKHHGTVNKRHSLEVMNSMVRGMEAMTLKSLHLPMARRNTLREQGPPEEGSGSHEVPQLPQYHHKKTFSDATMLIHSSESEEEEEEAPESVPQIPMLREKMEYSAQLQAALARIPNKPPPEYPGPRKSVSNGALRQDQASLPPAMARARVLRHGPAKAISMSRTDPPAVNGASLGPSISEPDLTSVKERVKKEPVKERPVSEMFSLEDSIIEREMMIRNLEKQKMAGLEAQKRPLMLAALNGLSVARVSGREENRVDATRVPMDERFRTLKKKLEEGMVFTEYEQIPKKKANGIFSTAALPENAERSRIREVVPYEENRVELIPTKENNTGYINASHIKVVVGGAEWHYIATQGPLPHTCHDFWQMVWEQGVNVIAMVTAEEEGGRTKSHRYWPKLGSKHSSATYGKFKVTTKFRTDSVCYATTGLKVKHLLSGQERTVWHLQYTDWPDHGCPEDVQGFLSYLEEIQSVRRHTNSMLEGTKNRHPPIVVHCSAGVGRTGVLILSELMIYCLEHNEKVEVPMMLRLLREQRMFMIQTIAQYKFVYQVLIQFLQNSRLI
UniProt Q7L9L4: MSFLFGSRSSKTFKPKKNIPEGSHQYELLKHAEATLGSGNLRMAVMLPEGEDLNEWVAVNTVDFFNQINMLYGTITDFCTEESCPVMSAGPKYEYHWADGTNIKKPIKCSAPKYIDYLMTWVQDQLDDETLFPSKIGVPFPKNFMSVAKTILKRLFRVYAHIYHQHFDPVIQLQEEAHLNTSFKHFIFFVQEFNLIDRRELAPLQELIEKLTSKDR

Experiments:
[1] = biological target: Strep‐HA LATS1 (human) (UniProt O95835); assay: affinity purification with mass spectrometry; reciprocal quantitative Strep AP-MS from HEK293 cells expressing Strep-HA YAP1, LATS1, PTPN14 or GFP (control) under an inducible promoter; targeted PRM with heavy reference peptides; three replicates
[2] = biological target: Strep‐HA YAP1 (wild type) (human); assay: affinity purification with mass spectrometry; Strep-HA YAP1 from induced T-REx Flp-In HEK293 cells captured on Strep-Tactin Sepharose from cleared lysate (0.5% NP40, 50 mM HEPES pH 7.5, 150 mM NaCl, 50 mM NaF); cells untreated or treated with vanadate (2, 20 min) or okadaic acid (60, 150 min); interactors filtered by SAINT > 0.90 against Strep-HA GFP controls; MS1 quantification
[3] = biological target: Strep‐HA YAP1 (wild type) (human); assay: affinity purification with mass spectrometry + native gel or EMSA; AP-BNPAGE: Strep-HA YAP1 complexes captured on Strep-Tactin Sepharose, eluted with 2.5 mM biotin, separated on Native PAGE 3-12% Bis-Tris at 4°C, 64 gel slices measured by MS; co-migration modules by protein correlation profiling

With “nonreceptor tyrosine phosphatase 14 (PTPN14), endogenous (from UniProt Q15678 1-1187) (enzyme)” the binding [1] was “binds”.

B1: RASFF8 (protein, UniProt Q8NHQ8 1-419)
chain: MELKVWVDGVQRIVCGVTEVTTCQEVVIALAQAIGRTGRYTLIEKWRDTERHLAPHENPIISLNKWGQYASDVQLILRRTGPSLSERPTSDSVARIPERTLYRQSLPPLAKLRPQIDKSIKRREPKRKSLTFTGGAKGLMDIFGKGKETEFKQKVLNNCKTTADELKKLIRLQTEKLQSIEKQLESNEIEIRFWEQKYNSNLEEEIVRLEQKIKRNDVEIEEEEFWENELQIEQENEKQLKDQLQEIRQKITECENKLKDYLAQIRTMESGLEAEKLQREVQEAQVNEEEVKGKIGKVKGEIDIQGQQSLRLENGIKAVERSLGQATKRLQDKEQELEQLTKELRQVNLQQFIQQTGTKVTVLPAEPIEIEASHADIEREAPFQSGSLKRPGSSRQLPSNLRILQNPISSGFNPEGIYV
B1 was tested, and the binding [2] was “binds”.

B2: AMOTL1 (protein, UniProt Q8IY63 1-956)
chain: MWRAKLRRGTCEPAVKGSPSACYSPSSPVQVLEDSTYFSPDFQLYSGRHETSALTVEATSSIREKVVEDPLCNFHSPNFLRISEVEMRGSEDAAAGTVLQRLIQEQLRYGTPTENMNLLAIQHQATGSAGPAHPTNNFSSTENLTQEDPQMVYQSARQEPQGQEHQVDNTVMEKQVRSTQPQQNNEELPTYEEAKAQSQFFRGQQQQQQQQGAVGHGYYMAGGTSQKSRTEGRPTVNRANSGQAHKDEALKELKQGHVRSLSERIMQLSLERNGAKQHLPGSGNGKGFKVGGGPSPAQPAGKVLDPRGPPPEYPFKTKQMMSPVSKTQEHGLFYGDQHPGMLHEMVKPYPAPQPVRTDVAVLRYQPPPEYGVTSRPCQLPFPSTMQQHSPMSSQTSSASGPLHSVSLPLPLPMALGAPQPPPAASPSQQLGPDAFAIVERAQQMVEILTEENRVLHQELQGYYDNADKLHKFEKELQRISEAYESLVKSTTKRESLDKAMRNKLEGEIRRLHDFNRDLRDRLETANRQLSSREYEGHEDKAAEGHYASQNKEFLKEKEKLEMELAAVRTASEDHRRHIEILDQALSNAQARVIKLEEELREKQAYVEKVEKLQQALTQLQSACEKREQMERRLRTWLERELDALRTQQKHGNGQPANMPEYNAPALLELVREKEERILALEADMTKWEQKYLEESTIRHFAMNAAATAAAERDTTIINHSRNGSYGESSLEAHIWQEEEEVVQANRRCQDMEYTIKNLHAKIIEKDAMIKVLQQRSRKDAGKTDSSSLRPARSVPSIAAATGTHSRQTSLTSSQLAEEKKEEKTWKGSIGLLLGKEHHEHASAPLLPPPPTSALSSIASTTAASSAHAKTGSKDSSTQTDKSAELFWPSMASLPSRGRLSTTPAHSPVLKHPAAKGTAEKLENSPGHGKSPDHRGRVSSLLHKPEFPDGEMMEVLI
B2 was tested, and the binding [3] was “binds”.

B3: MOB1A (protein, UniProt Q9H8S9 1-216)
chain: MSFLFSSRSSKTFKPKKNIPEGSHQYELLKHAEATLGSGNLRQAVMLPEGEDLNEWIAVNTVDFFNQINMLYGTITEFCTEASCPVMSAGPRYEYHWADGTNIKKPIKCSAPKYIDYLMTWVQDQLDDETLFPSKIGVPFPKNFMSVAKTILKRLFRVYAHIYHQHFDSVMQLQEEAHLNTSFKHFIFFVQEFNLIDRRELAPLQELIEKLGSKDR
B3 was tested, and the binding [3] was “binds”.

B4: MOB1B (protein, UniProt Q7L9L4 1-216)
chain: B3 chain with S6G, Q43M, I57V, E77D, A82E, R92K, S169P, M171I, G212T
B4 was tested, and the binding [3] was “binds”.

B5: 1433F (protein, UniProt Q04917 1-246)
chain: MGDREQLLQRARLAEQAERYDDMASAMKAVTELNEPLSNEDRNLLSVAYKNVVGARRSSWRVISSIEQKTMADGNEKKLEKVKAYREKIEKELETVCNDVLSLLDKFLIKNCNDFQYESKVFYLKMKGDYYRYLAEVASGEKKNSVVEASEAAYKEAFEISKEQMQPTHPIRLGLALNFSVFYYEIQNAPEQACLLAKQAFDDAIAELDTLNEDSYKDSTLIMQLLRDNLTLWTSDQQDEEAGEGN
B5 was tested, and the binding [2] was “binds”.

Residue numbers refer to the chain shown, from its start. These are yes or no findings as the source states them, for the method shown. In cells and extracts the contact can be indirect. A yes stands for co-enrichment or nearness to the bait. Other partners may have been found.
